Assay results as given in the supplement of paper PMC3334620.
The full ranking holds about 33,000 sequences; the median of “E-score (-0.5 to 0.5)” is about -0.015, and the highest 2% start at about 0.3. The list shows a part of the results.

Target: T1, Abf1 (UniProt P14164)
T1 sequence: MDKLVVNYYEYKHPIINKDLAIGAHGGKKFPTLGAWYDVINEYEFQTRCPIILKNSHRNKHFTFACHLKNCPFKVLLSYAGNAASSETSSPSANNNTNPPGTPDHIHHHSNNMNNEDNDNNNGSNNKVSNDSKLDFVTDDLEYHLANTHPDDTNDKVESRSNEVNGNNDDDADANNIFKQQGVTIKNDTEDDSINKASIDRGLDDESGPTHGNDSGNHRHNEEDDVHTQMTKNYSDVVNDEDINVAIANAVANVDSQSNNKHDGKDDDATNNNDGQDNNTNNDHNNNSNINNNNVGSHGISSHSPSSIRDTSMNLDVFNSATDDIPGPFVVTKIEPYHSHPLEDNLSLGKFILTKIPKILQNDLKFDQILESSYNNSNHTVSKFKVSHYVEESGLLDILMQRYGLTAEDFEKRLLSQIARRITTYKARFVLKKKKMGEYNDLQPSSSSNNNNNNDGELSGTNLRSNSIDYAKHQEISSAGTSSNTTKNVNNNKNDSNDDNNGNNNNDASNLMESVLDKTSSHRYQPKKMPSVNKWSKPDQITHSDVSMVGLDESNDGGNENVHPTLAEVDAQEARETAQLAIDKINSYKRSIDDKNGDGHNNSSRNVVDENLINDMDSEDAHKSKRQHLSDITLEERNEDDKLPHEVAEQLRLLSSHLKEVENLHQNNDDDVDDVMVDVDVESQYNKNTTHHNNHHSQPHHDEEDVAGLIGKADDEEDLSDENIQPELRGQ
Test: PBM E-score (8-mer binding enrichment) (E-score (-0.5 to 0.5)); higher = stronger / more preferred TF binding
Settings: protein concentration: 200 nM; construct: GST-full length
Procedure, shortened: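 PURExpress in vitro transcription/translation supplied GST-tagged yeast transcription factors, either full-length or DNA-binding domain. Applied at about 100-200 nM to universal all-10-mer Agilent arrays double-stranded by primer extension, the bound protein was detected with fluorescent anti-GST. E-scores, modified Wilcoxon-Mann-Whitney statistics, were given by the Universal PBM Analysis Suite to ungapped eight-base words pooled with their reverse complements after masliner normalisation.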

| Sequence | PBM E-score |
| --- | --- |
| CCGTTCGC | 0.138 |
| AACTGACG | 0.0253 |
| AGAGCGCT | -0.0498 |
| ATCCGACG | 0.155 |
| AACACATC | 0.0803 |
| GGTTACTA | -0.112 |
| AAGCAATG | 0.0852 |
| CCTTTAAA | -0.302 |
| GCGACGAA | 0.313 |
| ACGTAAAA | 0.317 |
| AAGAGATT | -0.0636 |
| TAAGGCTA | -0.0183 |
| ACCTTACA | -0.0618 |
| CCGCACGC | -0.186 |
| CCCTTGTC | -0.103 |
| GGAGATAA | 0.0908 |
| ATAGTGCC | -0.0726 |
| CCCTCGCA | -0.244 |
| GGTCAAAC | -0.00041 |
| GCAACTGA | -0.019 |
| GTCGGAAC | 0.0618 |
| GCTCAGAA | -0.184 |
| ACACGCAG | -0.105 |
| GGGATAAA | 0.118 |

| Sequence | PBM E-score |
| --- | --- |
| GCTCCTAA | -0.21 |
| AGGATCCC | -0.144 |
| GCATCCGC | -0.0484 |
| ACGCCTGC | -0.0732 |
| ACTTTAAG | -0.00861 |
| CCTTTTGC | 0.00767 |
| TATTAGGA | 0.14 |
| ATCGGCCC | 0.0117 |
| AAACAGAA | 0.023 |
| CCTCACTA | 0.159 |
| CTTCCAGA | -0.0365 |
| CTCATACA | -0.0831 |
| CGGCGTAA | -0.0111 |
| AATTCCAA | 0.116 |
| GCATGTGA | 0.0113 |
| CGACAGCA | -0.128 |
| GTCGCATA | 0.175 |
| GACATGCA | -0.11 |
| ATGGGTCG | -0.109 |
| ACCTGAGT | -0.0532 |
| CGACCTTC | 0.0167 |
| AGGCCTTC | -0.0303 |
| ACTGGCAG | -0.165 |
| GATCTCGA | 0.0914 |

| Sequence | PBM E-score |
| --- | --- |
| AGATACAG | -0.0394 |
| AAGGCTCT | -0.195 |
| CACTCACC | -0.0641 |
| AGAAGAAT | -0.0254 |
| AGTCCCCC | -0.301 |
| ATGTCCCC | 0.12 |
| CCTTTGGA | -0.13 |
| ATTACTTC | -0.0372 |
| CTCTTAAA | 0.00665 |
| CTTATATC | 0.236 |
| AGGATAGA | -0.0436 |
| CCTAATCA | 0.0715 |
| AGATCCCC | -0.0182 |
| AGCCCATG | -0.036 |
| ATGGCATA | -0.00935 |
| AGTCTCGG | -0.0348 |
| AGCCCTAA | -0.168 |
| ACACACGA | 0.279 |
| CTATCCAC | 0.0745 |
| CGACTATA | 0.129 |
| ATACTGCA | 0.036 |
| CGCCACTC | -0.0834 |
| CAGATCAG | 0.0875 |
| ACTGGATC | -0.13 |

| Sequence | PBM E-score |
| --- | --- |
| AAATGAAT | -0.0215 |
| AGATAATA | 0.107 |
| CGTTCCTA | 0.0602 |
| AAAGCGCC | -0.169 |
| GAGGTGCA | -0.0307 |
| AGAGAAAT | 0.135 |
| AAACGTGG | -0.115 |
| TTGGCAAA | 0.0371 |
| CTAGTCAA | -0.0964 |
| CGGCCAAG | -0.0491 |
| GGGTAGAC | -0.0257 |
| ACCATGAT | 0.0777 |
| ATCTCACC | 0.147 |
| ACATCCTC | 0.00654 |
| ACCTTGAC | -0.0458 |
| TAATGGCA | 0.0202 |
| CTCTTGCA | -0.162 |
| AGTCTCCA | 0.065 |
| CTCCGCGA | -0.0493 |
| CGCTCGCC | -0.0715 |
| CCATTGCC | -0.264 |
| CCGATGAG | -0.18 |

Individual results from the entries so far:
CGGCCAAG – PBM E-score: -0.0491
AACTGACG – PBM E-score: 0.0253
